{"source": "paper PMC2581491", "target": "T1, Fml1ΔC (Schizosaccharomyces pombe) (UniProt Q9UT23)", "T1 sequence (looked up, limits assumed)": "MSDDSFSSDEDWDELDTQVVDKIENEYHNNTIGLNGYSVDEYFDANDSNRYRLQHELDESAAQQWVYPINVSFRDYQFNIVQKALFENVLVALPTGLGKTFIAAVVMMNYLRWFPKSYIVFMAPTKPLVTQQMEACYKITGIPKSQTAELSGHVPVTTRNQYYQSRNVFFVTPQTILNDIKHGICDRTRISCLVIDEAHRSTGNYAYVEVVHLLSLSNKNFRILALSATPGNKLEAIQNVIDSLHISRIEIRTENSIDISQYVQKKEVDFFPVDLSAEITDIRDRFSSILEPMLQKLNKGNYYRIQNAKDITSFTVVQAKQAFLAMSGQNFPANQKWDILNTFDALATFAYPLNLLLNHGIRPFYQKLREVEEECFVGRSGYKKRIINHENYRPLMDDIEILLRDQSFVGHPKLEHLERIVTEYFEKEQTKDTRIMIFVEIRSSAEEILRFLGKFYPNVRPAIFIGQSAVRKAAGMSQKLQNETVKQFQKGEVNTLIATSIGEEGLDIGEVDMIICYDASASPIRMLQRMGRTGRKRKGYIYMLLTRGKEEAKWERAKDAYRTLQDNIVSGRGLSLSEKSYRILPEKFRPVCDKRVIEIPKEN", "assay": "EMSA", "conditions": "EMSA: 0.5 nM labeled DNA in 50 mM Tris-HCl pH 8.0, 1 mM DTT, 100 µg/ml BSA, 6% glycerol, 20 µl, recombinant protein, protein details: N-terminal His6 (pET14b, pSN3), label: 5'-32P on oligo 2 (S7), folded or branched DNA", "note": "The exact form of at least one protein or probe is not confirmed. Tags and fusion partners may be left off the protein sequences shown.", "data": [{"sequence": "GACGCTGCCGAATTCTGGCTTGCTAGGACATCTTTGCCCACGTTGACCC / TGGGTCAACGTGGGCAAAGATGTCCTAGCAATGTAATCGTCTATGACGTT / CAACGTCATAGACGATTACATTGCTAGGACATGCTGTCTAGAGACTATCGA / ATCGATAGTCTCTAGACAGCATGTCCTAGCAAGCCAGAATTCGGCAGCGT [X-12]", "values": [{"measurement": "binding result", "setting": "bound equally well as X-0", "result": "binds"}]}, {"sequence": "TGCCGAATTCTACCAGTGCCAGTGATGGACATCTTTGCCCACGTTGACCC / TGGGTCAACGTGGGCAAAGATGTCCTAGCAATGTAATCGTCTATGACGTT / CAACGTCATAGACGATTACATTGCTACATGGAGCTGTCTAGAGGATCCGA / GTCGGATCCTCTAGACAGCTCCATGATCACTGGCACTGGTAGAATTCGGC [X-0]", "values": [{"measurement": "binding result", "setting": "bound equally well as X-12", "result": "binds"}]}, {"sequence": "TGGGTCAACGTGGGCAAAGATGTCCTAGCAATGTAATCGTCTATGACGTT / CAACGTCATAGACGATTACATTGCTAATCACTGGCACTGGTAGAATTCGGC / GGACATCTTTGCCCACGTTGACCC / TGCCGAATTCTACCAGTGCCAGTGAT [F2 fork]", "values": [{"measurement": "binding result", "result": "binds"}]}]}
